Test results: US20240042019A1, “OPTIMIZED TLR7 LIGANDS AND USES THEREOF” (Genentech, Inc., priority 2021, published 2024)
Some entries share one result that the patent states for a list of compounds. Oligonucleotides are written 5' to 3', each unit as a sugar letter and its base; * is a phosphorothioate linkage, no mark a phosphodiester; rarer units and linkages stand in square brackets, end groups in braces. Plain capitals give the bases only. m = 2'-O-methyl; r = 2'-OH (RNA); f = 2'-fluoro

Biological target: T1, TLR7 (Homo sapiens, UniProt Q9NYK1)
T1 construct: Peripheral blood mononuclear cells (PBMCs) were obtained from buffy coats from healthy adult donors; endogenous in cells; host or cells: primary human PBMCs from healthy donor buffy coats (TLR7 expressed by pDCs)
T1 sequence (Q9NYK1 27-1049): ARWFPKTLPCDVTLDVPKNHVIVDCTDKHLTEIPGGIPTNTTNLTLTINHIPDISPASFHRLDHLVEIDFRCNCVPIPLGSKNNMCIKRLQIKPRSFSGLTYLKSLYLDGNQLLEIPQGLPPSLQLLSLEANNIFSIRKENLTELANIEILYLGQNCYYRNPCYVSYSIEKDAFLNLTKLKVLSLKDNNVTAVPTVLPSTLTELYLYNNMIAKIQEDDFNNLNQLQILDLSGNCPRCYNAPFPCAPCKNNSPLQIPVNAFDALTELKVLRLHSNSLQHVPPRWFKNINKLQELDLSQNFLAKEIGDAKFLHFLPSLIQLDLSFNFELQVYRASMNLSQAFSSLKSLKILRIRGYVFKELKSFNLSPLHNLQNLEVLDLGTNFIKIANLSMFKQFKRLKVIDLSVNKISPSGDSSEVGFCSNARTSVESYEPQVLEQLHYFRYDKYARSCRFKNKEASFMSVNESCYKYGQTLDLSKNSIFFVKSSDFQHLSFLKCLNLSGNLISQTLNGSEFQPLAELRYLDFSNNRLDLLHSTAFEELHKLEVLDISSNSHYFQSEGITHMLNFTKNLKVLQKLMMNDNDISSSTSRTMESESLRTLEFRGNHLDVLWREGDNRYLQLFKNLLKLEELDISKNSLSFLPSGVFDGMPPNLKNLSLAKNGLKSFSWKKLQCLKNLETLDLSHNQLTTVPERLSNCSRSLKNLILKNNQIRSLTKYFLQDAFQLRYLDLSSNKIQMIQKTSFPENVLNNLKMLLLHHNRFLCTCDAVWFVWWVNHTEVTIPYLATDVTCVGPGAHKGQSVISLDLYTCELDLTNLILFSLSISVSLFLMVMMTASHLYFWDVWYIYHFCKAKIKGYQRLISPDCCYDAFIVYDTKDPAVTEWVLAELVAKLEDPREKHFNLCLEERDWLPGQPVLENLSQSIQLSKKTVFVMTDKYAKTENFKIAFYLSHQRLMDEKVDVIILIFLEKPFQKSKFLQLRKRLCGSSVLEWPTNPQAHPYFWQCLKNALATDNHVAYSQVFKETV
Assay: PBMC stimulation with p-L-arginine-complexed RNA ligands, IFN-α ELISA
Type: cell-based
Conditions: human PBMCs; for IFN-α secretion when co-delivered with 2′3′ cGMP: p-L-arginine complexes with 2′3′ cyclic GMP 5 μg/ml, ORN 0.6 μg/ml (FIG. 12); for IFN-α secretion with exogenous guanosine: p-L-arginine delivery, co-stimulated with guanosine (FIG. 7)
Experimental: Peripheral blood mononuclear cells (PBMCs) were obtained from buffy coats from healthy adult donors. Buffy coat samples were first diluted with an equal volume of phosphate-buffered saline (PBS). Next, PBMCs were isolated via density gradient centrifugation with Lymphoprep density gradient media ([…] Technologies) and SepMate-50 tubes ([…] Technologies). Samples were centrifuged at 1000 g for 15 minutes. After centrifugation, the upper layers were collected by pouring into a new tube, diluted with PBS, and centrifuged at 450×g for 5 minutes. To lyse red blood cells, cell pellets were resuspended with 10 mL Ammonium-Chloride-Potassium (ACK) Lysis Buffer and incubated for 8 minutes at room temperature. After lysis, cells were washed with PBS and passed through two 70 μm cell strainers. Viable cell counts were determined with a Vi-CELL cell counter (Beckman Coulter). […] Guanosine was added between about 20 and about 30 minutes before the addition of poly-[…])-complexed RNA. […] After mixing by pipetting up and down, the reaction was incubated for 10 minutes, pipetted up and down again, and then added to the cells. In some experiments, RNA ligands were used at a final concentration of 0.6 μg/ml. Where indicated as “+2'3' cGMP”, 2'3' cyclic GMP purchased from eMolecules was complexed together with the RNA ligands. The final concentration of 2'3' cyclic GMP was 5 μg/ml. p-L-arginine was adjusted accordingly to keep the mass ratio of nucleic acid:p-L-arginine constant. Cell culture supernatants were collected 15-18 hours after stimulation and stored at -80° C. Cytokines in cell culture supernatants were detected with the BD OptEIA human TNF ELISA Set (BD Biosciences), and either Invitrogen IFN alpha Human Matched Antibody Pair kit (Thermo Fisher Scientific) or Human IFN Alpha Multi-Subtype ELISA Kit (PBL Assay Science). To test the effects of the RNA ligands described in Example 1 on TLR7 and TLR8 activation, PBMCs were stimulated with the RNA ligands using p-L-arginine complex delivery, delivery with DOTAP, or delivery without a carrier. Activity of TLR7 and TLR8 was assessed based on measurements of IFN-α or TNF-α by enzyme-linked immunosorbent assays (ELISA). In this setting, as depicted in FIG. 6, IFN-α induced by small RNAs is derived from TLR7 expressed by pDCs, or from RIG-I expressed by monocytes. In contrast, TNF-α secretion is derived from monocytes and serves as an indication of TLR8 activation. As shown in this figure, the p-L-arginine delivery restricts most of the activation to TLRs. First, the effects of the RNA ligands on TLR7 and TLR8 activation using p-L-arginine complex delivery were tested.

Substance	IFN-α secretion when co-delivered with 2′3′ cGMP	IFN-α secretion with exogenous guanosine
C*C*U*U*C*U*U*C*U*U*C*U*U*C*U*U*C*U*U*C (rC*rC*rU*rU*rC*rU*rU*rC*rU*rU*rC*rU*rU*rC*rU*rU*rC*rU*rU*rC) [ORN7012]	markedly enhanced	lack of IFN-α secretion
C-C-fU-U-C-fU-U-C-fU-U-C-fU-U-C-fU-U-C-fU-U-C (rCrCfUrUrCfUrUrCfUrUrCfUrUrCfUrUrCfUrUrC) [ORN7011, 2′-fluoro-modified version of ORN7009]	markedly enhanced	lack of IFN-α secretion
C-C-mU-U-C-mU-U-C-mU-U-C-mU-U-C-mU-U-C-mU-U-C (rCrCmUrUrCmUrUrCmUrUrCmUrUrCmUrUrCmUrUrC) [ORN7010, 2′O-methyl-modified version of ORN7009]	markedly enhanced	lack of IFN-α secretion
U*C*U*C*U*C*U*C*U*C*U*C*U*C*U*C*U*C*U*C (rU*rC*rU*rC*rU*rC*rU*rC*rU*rC*rU*rC*rU*rC*rU*rC*rU*rC*rU*rC) [ORN7008]	markedly enhanced	lack of IFN-α secretion
U-fC-U-fC-U-fC-U-fC-U-fC-U-fC-U-fC-U-fC-U-fC-U-C (rUfCrUfCrUfCrUfCrUfCrUfCrUfCrUfCrUfCrUrC) [ORN7007, 2′-fluoro-modified version of ORN7005]	markedly enhanced	lack of IFN-α secretion
U-mC-U-mC-U-mC-U-mC-U-mC-U-mC-U-mC-U-mC-U-mC-U-C (rUmCrUmCrUmCrUmCrUmCrUmCrUmCrUmCrUmCrUrC) [ORN7006, 2′O-methyl-modified version of ORN7005]	markedly enhanced	lack of IFN-α secretion
